Measured values published in PMC12123037, “Cleavage of CAD by caspase-3 determines the cancer cell fate during chemotherapy” (Nature Communications, 2025).
No constants are given. Whether binding was seen depends on the method and setting. Binding seen in cells or lysates may run through a third protein. Some entries that bind do so weakly or less than the wild type.

Protein sequences, listed by entry. Tags and fused reporters are not part of them. Lines headed by an entry give the natural chain unless they say otherwise; changes in a name come on top.
UniProt P27708: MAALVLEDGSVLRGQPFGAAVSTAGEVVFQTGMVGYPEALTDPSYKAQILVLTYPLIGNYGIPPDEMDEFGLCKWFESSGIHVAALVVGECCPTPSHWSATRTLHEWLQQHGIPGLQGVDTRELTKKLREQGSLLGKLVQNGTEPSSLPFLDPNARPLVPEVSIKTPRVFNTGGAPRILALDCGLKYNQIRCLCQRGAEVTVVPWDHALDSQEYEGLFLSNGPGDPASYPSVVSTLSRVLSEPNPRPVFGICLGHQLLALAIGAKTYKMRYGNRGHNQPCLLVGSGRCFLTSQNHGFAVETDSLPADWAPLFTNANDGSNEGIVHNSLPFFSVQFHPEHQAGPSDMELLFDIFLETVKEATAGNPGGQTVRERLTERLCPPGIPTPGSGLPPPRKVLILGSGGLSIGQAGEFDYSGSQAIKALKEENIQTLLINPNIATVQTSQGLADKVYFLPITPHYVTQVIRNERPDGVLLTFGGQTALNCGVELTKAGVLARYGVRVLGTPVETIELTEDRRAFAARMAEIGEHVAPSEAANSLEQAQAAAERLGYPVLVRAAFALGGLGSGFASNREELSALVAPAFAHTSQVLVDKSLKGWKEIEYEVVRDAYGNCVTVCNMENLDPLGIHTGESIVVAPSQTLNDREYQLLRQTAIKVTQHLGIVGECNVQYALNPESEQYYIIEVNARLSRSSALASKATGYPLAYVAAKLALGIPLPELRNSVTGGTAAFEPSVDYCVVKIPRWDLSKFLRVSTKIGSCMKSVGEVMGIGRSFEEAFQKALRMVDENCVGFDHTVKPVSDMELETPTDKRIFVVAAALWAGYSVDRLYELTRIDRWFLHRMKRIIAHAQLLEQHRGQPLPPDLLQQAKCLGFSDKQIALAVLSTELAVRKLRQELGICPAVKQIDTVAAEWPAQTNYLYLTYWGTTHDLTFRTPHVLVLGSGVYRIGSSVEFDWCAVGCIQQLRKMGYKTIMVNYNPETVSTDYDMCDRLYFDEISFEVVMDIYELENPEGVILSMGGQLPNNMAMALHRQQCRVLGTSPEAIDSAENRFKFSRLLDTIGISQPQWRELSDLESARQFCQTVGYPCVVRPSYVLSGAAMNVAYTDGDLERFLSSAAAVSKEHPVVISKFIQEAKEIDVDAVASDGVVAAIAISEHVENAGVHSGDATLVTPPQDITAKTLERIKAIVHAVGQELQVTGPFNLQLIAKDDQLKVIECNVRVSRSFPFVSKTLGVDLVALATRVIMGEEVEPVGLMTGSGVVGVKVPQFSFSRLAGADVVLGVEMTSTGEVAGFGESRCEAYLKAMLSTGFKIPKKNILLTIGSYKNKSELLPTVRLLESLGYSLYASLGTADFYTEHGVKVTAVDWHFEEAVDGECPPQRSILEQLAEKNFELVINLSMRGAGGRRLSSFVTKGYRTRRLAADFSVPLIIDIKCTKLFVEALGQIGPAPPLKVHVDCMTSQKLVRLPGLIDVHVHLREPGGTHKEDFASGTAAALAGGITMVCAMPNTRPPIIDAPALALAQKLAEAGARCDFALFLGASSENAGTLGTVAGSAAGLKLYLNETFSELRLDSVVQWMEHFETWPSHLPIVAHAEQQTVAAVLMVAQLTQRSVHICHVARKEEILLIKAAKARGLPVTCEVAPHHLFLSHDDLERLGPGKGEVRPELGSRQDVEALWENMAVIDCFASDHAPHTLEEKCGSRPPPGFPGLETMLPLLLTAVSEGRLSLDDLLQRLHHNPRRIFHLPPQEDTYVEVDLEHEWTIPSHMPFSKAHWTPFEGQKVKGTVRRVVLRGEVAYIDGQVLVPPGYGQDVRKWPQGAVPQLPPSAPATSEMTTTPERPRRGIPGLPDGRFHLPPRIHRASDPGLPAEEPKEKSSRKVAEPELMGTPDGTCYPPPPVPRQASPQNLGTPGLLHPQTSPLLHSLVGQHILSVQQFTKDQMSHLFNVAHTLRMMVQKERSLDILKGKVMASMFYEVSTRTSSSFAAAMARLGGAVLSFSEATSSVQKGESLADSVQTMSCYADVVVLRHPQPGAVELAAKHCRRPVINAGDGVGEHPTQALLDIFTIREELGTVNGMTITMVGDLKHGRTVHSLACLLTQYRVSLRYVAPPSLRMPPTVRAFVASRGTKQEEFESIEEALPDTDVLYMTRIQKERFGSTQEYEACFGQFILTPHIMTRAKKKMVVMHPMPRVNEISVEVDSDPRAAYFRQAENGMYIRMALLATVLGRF
UniProt P11172: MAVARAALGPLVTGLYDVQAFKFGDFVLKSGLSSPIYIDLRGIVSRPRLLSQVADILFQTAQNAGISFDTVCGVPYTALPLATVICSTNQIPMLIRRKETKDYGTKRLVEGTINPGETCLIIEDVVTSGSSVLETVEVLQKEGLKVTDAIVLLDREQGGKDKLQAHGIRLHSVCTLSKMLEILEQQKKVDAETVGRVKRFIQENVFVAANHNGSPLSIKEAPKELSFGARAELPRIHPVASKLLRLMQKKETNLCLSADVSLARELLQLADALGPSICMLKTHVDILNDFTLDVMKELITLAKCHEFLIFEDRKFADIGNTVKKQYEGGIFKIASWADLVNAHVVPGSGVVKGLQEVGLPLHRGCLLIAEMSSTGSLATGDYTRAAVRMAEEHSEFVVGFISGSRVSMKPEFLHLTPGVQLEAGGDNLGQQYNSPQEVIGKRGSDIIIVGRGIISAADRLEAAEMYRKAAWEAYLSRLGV
UniProt P17174: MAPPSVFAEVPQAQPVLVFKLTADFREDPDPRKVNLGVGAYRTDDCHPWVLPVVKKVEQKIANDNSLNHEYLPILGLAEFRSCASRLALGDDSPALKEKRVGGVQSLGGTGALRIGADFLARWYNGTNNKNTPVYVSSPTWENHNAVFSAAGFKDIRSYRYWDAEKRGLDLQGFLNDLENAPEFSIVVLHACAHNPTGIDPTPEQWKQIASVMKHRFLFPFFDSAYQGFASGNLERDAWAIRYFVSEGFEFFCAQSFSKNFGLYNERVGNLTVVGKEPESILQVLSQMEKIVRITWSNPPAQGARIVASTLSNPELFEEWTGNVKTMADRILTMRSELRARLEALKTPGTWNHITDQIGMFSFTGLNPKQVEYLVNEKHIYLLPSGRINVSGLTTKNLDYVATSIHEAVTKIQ

Experiments:
[1] = target: Flag-tagged CAD-D1371A (human) (UniProt P27708); assay: co-IP; Flag-tagged CAD precipitated from lysates of transfected cells with anti-FLAG M2 magnetic beads, 4 °C overnight; 20 mM Tris-HCl pH 7.4, 150 mM NaCl, 1 mM EDTA, 1% Triton X-100; immunoblot (general IP methods; legend of Supplementary Fig. 4b not shown)
[2] = target: Flag-tagged wildtype CAD (Carbamoyl-phosphate synthetase II, Aspartate transcarbamylase, and Dihydroorotase) (human) (UniProt P27708); assay: as above

| Substance | binding [1] | binding [2] |
| --- | --- | --- |
| uridine 5'-monophosphate synthase (UMPS) (from UniProt P11172 1-480) (enzyme) | binds | binds |
| glutamate oxaloacetate transaminase 1 (GOT1) (from UniProt P17174 1-413) (enzyme) | binds | binds |
